Results reported in publication PMC10163288.
The list shows a part of the results.

B1: il10ra_site1_sap_16_mot_HHH_b2_08265_af2_000000206_0001_22_38_H_._HHH_b1_07741_af2_0001_0000300015_0000001_1_0001 (protein)
chain: SSSSSDELEERVEELLEEAKKIEDPARRAHVMIQAYALANRLNDPELEEEVREVARELVSSSSSS
B2: il10ra_site1_sap_16_mot_HHH_b1_00563_000000253_0001_39_52_H_._HHH_b1_07572_af2_0001_0000400013_0000001_0_0001 (protein)
chain: SSSSSSEEEERAEELIEEAKEIPDPREFVEALQRAVRLAFRANDEELLRRIWELLREFADSSSSS
B3: il10ra_site1_sap_23_mot_HHH_b1_02232_000000288_0001_23_39_H_._HHH_b1_07306_af2_0001_0000100001_0000003_0_0001 (protein)
chain: SSSSSDEEEEEFKELAREAEEAKNADERYEIIKRLIEIASELNNEELEELVHRIIRKLLRSSSSS
B4: il10ra_site1_sap_28_mot_HHH_b2_01776_000000118_0001_38_52_H_._HHH_b1_02755_0001_0000100001_0000001_0_0001_af2pred_0001 (protein)
chain: SSSSDEELLEHLLRALKQVVELGDEERAKLTIKFIKRLAELHNDEEVEKRLRELEELVEELSSSS
B5: il10ra_site1_normal_mot_HHH_b1_06994_000000193_0001_40_55_H_._HHH_b1_02695_0001_0000600075_0000002_0 (protein)
chain: SSSSDLEELVRAALILAEQAVKNGDPRAARRLLEALLEALEKDNDPELVRLVEELLEEIRGSSSS
B6: il10ra_site1_normal_mot_HHH_b1_08697_af2_000000298_0001_1_18_H_._HHH_b1_03920_0001_0000300021_0000001_0_af2pred_0001 (protein)
chain: SSSSSKSEIAARFHAEILELALEAGDEESIRAARRALEALAELTNDELARELLEEIREKLSSSSS
B7: il10ra_site1_normal_mot_HHH_b1_06363_000000103_0001_21_38_H_._HHH_b1_06214_af2_0001_0000400025_0000002_0_af2pred_dldesign_0_af2pred (protein)
chain: SSSSSSEKRKEVEELIAEAEKLEDPNKRYELLVKAYALAKEIKDEELVARVTARLRAFSASSSSS
B8: il10ra_site1_normal_mot_HHH_b1_05185_000000011_0001_22_39_H_._HHH_b1_02178_0001_0000100004_0000001_0_1_af2pred_dldesign_0_af2pred (protein)
chain: SSSSEELKERALRGLDTLHRARDPEALRRAAEYYAAQLEAAGYPEEAKEVLDRAEALLAELSSSS
B9: il10ra_site1_sap_29_mot_HHH_b1_04693_000000238_0001_19_36_H_._cdd71eb80049a0ee137549ea9904a389_0001_0001_0000400011_0000001_0_0001 (protein)
chain: SSSSDVEEEVERLLREAEQLAEEGDPEKVSRLLQEAVHFAWRRSNEELLREVWEVVKRLASSSSS
B10: il10ra_site1_normal_mot_6bb093d23f5042b6c551c363657da53b_0001_1_000000153_0001_51_65_H_._HHH_b2_03328_0001_0000100004_0000001_0 (protein)
chain: SSSSDEEEEEVRRLYEEVERLLEEGNPEEALEVLVHLSRLAVEINDPEATKLVLELAELLKSSSS
B11: il10ra_site1_sap_13_mot_HHH_b2_00134_af2_000000004_0001_38_52_H_._35c8b62d970cef76564607aec484dc10_0001_1_0001_0001000013_0000001_0_0001_af2pred_0001 (protein)
chain: TLEILVRFALENGNPEALRFLLELLLREAKQAGDEKTEELIEEALEALEEGDPERVRELVERVLK
B12: il10ra_site1_normal_mot_HHH_b2_07144_000000289_0001_1_18_H_._HHH_b1_08504_0001_0000100005_0000001_0 (protein)
chain: SSSSDESQELYELSRRAAELLREGNPEEAREVVQEAIELAEEINNEVVLHNLEYLLRELESSSSS
B13: il10ra_site1_normal_mot_HHH_b1_01821_000000158_0001_23_39_H_._HHH_b1_08068_af2_0001_0000400011_0000002_0 (protein)
chain: SSSSSDEEEKVRELLEEAEEIEDHEERLEVLLEALRLAIELQNPELLQLVWEVFRRLAGSSSSSS
B14: il10ra_site1_sap_12_mot_HHH_b1_03031_af2_000000117_0001_17_33_H_._91cf7d669ae9415c4ca5d6db8d18144b_0001_af2_0001_0000100002_0000002_0_0001_af2pred_0001 (protein)
chain: SSSSDEERLEELLEILKELVEKNDEERFKEVYHEAMELAIKLRDEEALYELTRLFALLNTSSSSS
B15: il10ra_site1_sap_22_mot_HHH_b1_02062_000000185_0001_1_20_H_._HHH_b1_03051_af2_0001_0000200007_0000001_0_0001 (protein)
chain: SSSSDEVEEEIYRLIMAIARAMIRGDEERVKELLEELEELAEELNDPVARHALKIVRNALSSSSS
B16: il10ra_site1_sap_21_mot_cff26900b2948c323735a169404cbef0_0001_1_000000271_0001_18_33_H_._3f00252fc529791599e8cc5ffc065fdd_0001_0001_0000500019_0000002_0_0001_af … (protein)
chain: SSSSTNERITELIRKAAEAYGAGKPEEALALLNEAKALADAEGIKSYQPTIDYLLSQVALASSSS
B17: il10ra_site1_sap_14_mot_HHH_b2_00943_af2_000000149_0001_1_17_H_._HHH_b1_07595_0001_0000100001_0000001_0_0001 (protein)
chain: SSSSSDETHELYRLLKEAMELAAEGNPEEAREVLEEAEELAREAGDRVLLVVIETVLRRISSSSS
B18: il10ra_site1_sap_15_mot_HHH_b1_06256_000000091_0001_42_58_H_._ems_3hM_3301_0001_0000100003_0000002_0_0001 (protein)
chain: SSSSSSEEEEIEELLKEAEELGKEEAERAARALLEAAERGLVSEELARAALRLLRQQVKWSSSSS
B19: il10ra_site1_normal_mot_HHH_b1_02062_000000185_0001_1_20_H_._HHH_b2_01378_0001_0000100004_0000001_1 (protein)
chain: SSSSDEEREVYELSREAAELNSEGDPEEARKVLEEAKEIAEEINNELLLFQLEFLERIVNSSSSS
B20: il10ra_site1_sap_15_mot_05ca327611f5605f0dd8494b449afcbf_0001_1_000000248_0001_35_51_H_._HHH_b1_07234_af2_0001_0000300013_0000001_0_0001 (protein)
chain: SSSSDEEAREAYELSREAVELDSDGNREEAEEVAEEAERLAKEAGNRVVLVVIRWLLRRIGSSSS
B21: il10ra_site1_normal_mot_HHH_b2_02337_000000026_0001_38_52_H_._HHH_b2_03301_0001_0000100010_0000001_0 (protein)
chain: SSSSDEEERVKELLEEAQELIEEGNPEEAAEVLQEALRLILELGDEELLRELWELVQELYSSSSS
B22: il10ra_site1_sap_21_mot_HHH_b1_06625_000000108_0001_1_15_H_._HHH_b1_00925_0001_0000300005_0000001_0_0001_af2pred_0001 (protein)
chain: SSSSDEEEEELKELLKRLEQLVEEGNREEFIRLYRRVAKLAAELNDEEVLRLLVELLRKADSSSS
B23: il10ra_site1_normal_mot_HHH_b1_07380_000000129_0001_1_20_H_._HHH_b2_04624_0001_0000100005_0000001_0 (protein)
chain: SSSSSDAAEELYRLSREAAELLAEGNPEEAERVAQEAFELAEEAGDEVLLFAIELLLRDISSSSS
B24: il10ra_site1_normal_mot_HHH_b1_06667_af2_000000019_0001_42_58_H_._HHH_b2_04021_af2_0001_0000400012_0000001_0 (protein)
chain: SSSSSDEHYRRNLRRFLKLLKEQGDEEALRSLLRAAKEVAKALNDEELEEEVEEILRELKSSSSS

Target: il10ra, Q13651
Assay: yeast display titration

Binder	apparent Kd
B1	inactive: no binding seen
B2	inactive: no binding seen
B3	inactive: no binding seen
B4	inactive: no binding seen
B5	inactive: no binding seen
B6	inactive: no binding seen
B7	inactive: no binding seen
B8	inactive: no binding seen
B9	inactive: no binding seen
B10	inactive: no binding seen
B11	inactive: no binding seen
B12	inactive: no binding seen
B13	inactive: no binding seen
B14	inactive: no binding seen
B15	inactive: no binding seen
B16	inactive: no binding seen
B17	inactive: no binding seen
B18	inactive: no binding seen
B19	inactive: no binding seen
B20	inactive: no binding seen
B21	inactive: no binding seen
B22	inactive: no binding seen
B23	inactive: no binding seen
B24	inactive: no binding seen

Look-ups from the list:
Under apparent Kd, B14 is listed with inactive: no binding seen
Under apparent Kd, B9 is listed with inactive: no binding seen
